doi:10.1101/2025.06.20.660705
Numbering of substitutions follows the chain as printed. Names may count otherwise. Read-outs that look alike come from different tables or passages of the source. These are yes or no findings as the source states them, for the method shown. In cells and extracts the contact can be indirect. Some results given as binding are weak or reduced against the parent protein; the word gives no strength. Where a sequence is shown, tags or fusion partners need not be part of it. One block for each binder: values may come before it.

By UniProt entry, the sequences of proteins in these tests, tags left out. Where a name states a change or a piece, a line headed by the entry shows the natural chain unless it says otherwise. Residues count along the entry.
UniProt O43567, 35-381: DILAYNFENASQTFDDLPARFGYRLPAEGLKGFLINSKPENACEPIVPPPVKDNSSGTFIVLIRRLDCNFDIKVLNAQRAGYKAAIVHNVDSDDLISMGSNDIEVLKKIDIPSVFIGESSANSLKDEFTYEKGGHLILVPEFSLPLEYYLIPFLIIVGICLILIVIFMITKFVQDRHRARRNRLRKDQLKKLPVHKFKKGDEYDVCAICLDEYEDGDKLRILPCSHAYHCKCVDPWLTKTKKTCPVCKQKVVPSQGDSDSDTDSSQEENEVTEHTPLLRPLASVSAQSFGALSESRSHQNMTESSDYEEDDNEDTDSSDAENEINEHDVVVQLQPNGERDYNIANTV

Key:
Assay in all cases: co-IP
[1] = target: RNF13-HA (wild-type, full-length human RNF13, HA-tagged) (human) (UniProt O43567)
[2] = target: RNF13-HA (wild-type, full-length human RNF13, HA-tagged) (human) (UniProt O43567); remark: listed apart in the source
[3] = target: RNF13-HA (wild-type, full-length human RNF13, HA-tagged) (human) (UniProt O43567); remark: listed apart in the source

binding [1]: binds
binding [2]: binds
binding [3]: binds
B1: IDS-V5 (wild-type, full-length human iduronate 2-sulfatase, C-terminal V5 tag) (enzyme, UniProt P22304-1 26-550)
chain: SETQANSTTDALNVLLIIVDDLRPSLGCYGDKLVRSPNIDQLASHSLLFQNAFAQQAVCAPSRVSFLTGRRPDTTRLYDFNSYWRVHAGNFSTIPQYFKENGYVTMSVGKVFHPGISSNHTDDSPYSWSFPPYHPSSEKYENTKTCRGPDGELHANLLCPVDVLDVPEGTLPDKQSTEQAIQLLEKMKTSASPFFLAVGYHKPHIPFRYPKEFQKLYPLENITLAPDPEVPDGLPPVAYNPWMDIRQREDVQALNISVPYGPIPVDFQRKIRQSYFASVSYLDTQVGRLLSALDDLQLANSTIIAFTSDHGWALGEHGEWAKYSNFDVATHVPLIFYVPGRTASLPEAGEKLFPYLDPFDSASQLMEPGRQSMDLVELVSLFPTLAGLAGLQVPPRCPVPSFHVELCREGKNLLKHFRFRDLEEDPYLPGNPRELIAYSQYPRPSDIPQWNSDKPSLKDIKIMGYSIRTIDYRYTVWVGFNPDEFLANFSDIHAGELYFVDSDPLQDHNMYNDSQGGDLFQLLMP

binding [3]: binds
B2: IDS N246Q-V5 (enzyme, UniProt P22304-1 26-550)
chain: B1 chain with N221Q
